# Assay results: US20100056636A1, “N-Substituted-P-Menthane-3-Carboxamide and Uses Thereof” (priority 2006, published 2010)
# Assay: Odor of the tested chemicals (Table I)
# Design: species or system human
row,Compound,Odor
1,"CCNC(=O)C1CC(C)CCC1C(C)C (stereo not shown) [WS-3, N-Ethyl-p-menthane-3-carboxamide, reference compound]",None
2,"CC1CCC(C(C)C)C(C(=O)N[C@H]2C[C@H]2c2ccccc2)C1 (stereo partly drawn) [Example 6, 2-isopropyl-5-methyl-N-((1S,2S)-2-phenylcyclopropyl)-cyclohexanecarboxamide]",None
3,"CC1CCC(C(C)C)C(O)C1 (stereo not shown) [menthol, reference compound]",Minty
4,"CCOc1ccccc1CCNC(=O)C1CC(C)CCC1C(C)C (stereo not shown) [Example 5, N-(2-ethoxyphenethyl)-2-isopropyl-5-methylcyclohexane-carboxamide]",None
5,"CC1CCC(C(C)C)C(C(=O)NCC(O)c2ccccc2)C1 (stereo not shown) [Example 1, 2-isopropyl-5-methyl-cyclohexanecarboxylic acid (2-hydroxy-2-phenylethyl)-amide]",None
6,"N-(3,4-dimethylphenethyl)-2-isopropyl-5-ethylcyclo-hexanecarboxamide [Example 7]",None
7,"CC1CCC(C(C)C)C(C(=O)NCCc2ccccc2)C1 (stereo not shown) [Example 2, 2-isopropyl-5-methyl-cyclohexanecarboxylic acid phenylethyl-amide]",None
